In the supplement of paper PMC10849652:
The other results are listed elsewhere or left out.

By UniProt entry, the sequences of proteins in these tests, tags left out. Where a name states a change or a piece, a line headed by the entry shows the natural chain unless it says otherwise.
UniProt Q96IJ6: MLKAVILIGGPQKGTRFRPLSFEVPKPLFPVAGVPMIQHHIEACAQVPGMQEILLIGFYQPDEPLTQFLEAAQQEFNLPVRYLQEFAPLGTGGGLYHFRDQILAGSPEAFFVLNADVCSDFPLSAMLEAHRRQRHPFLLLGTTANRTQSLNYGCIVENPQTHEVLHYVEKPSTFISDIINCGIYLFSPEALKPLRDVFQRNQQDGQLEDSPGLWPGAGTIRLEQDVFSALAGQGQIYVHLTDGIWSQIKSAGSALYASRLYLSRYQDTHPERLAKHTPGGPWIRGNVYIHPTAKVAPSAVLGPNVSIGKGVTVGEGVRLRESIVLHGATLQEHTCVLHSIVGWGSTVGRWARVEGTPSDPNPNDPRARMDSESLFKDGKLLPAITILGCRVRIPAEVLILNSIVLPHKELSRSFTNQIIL
UniProt Q15743: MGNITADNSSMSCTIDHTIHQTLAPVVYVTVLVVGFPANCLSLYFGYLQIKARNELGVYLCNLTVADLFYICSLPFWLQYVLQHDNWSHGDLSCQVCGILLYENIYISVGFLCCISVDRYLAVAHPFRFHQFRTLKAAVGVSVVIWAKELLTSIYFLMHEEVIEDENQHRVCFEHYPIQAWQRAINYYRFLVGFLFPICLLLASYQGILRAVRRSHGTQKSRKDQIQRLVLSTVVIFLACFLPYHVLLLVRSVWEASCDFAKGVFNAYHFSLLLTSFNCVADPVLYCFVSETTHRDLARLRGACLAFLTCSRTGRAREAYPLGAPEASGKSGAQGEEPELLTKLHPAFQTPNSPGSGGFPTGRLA
UniProt Q9HC44: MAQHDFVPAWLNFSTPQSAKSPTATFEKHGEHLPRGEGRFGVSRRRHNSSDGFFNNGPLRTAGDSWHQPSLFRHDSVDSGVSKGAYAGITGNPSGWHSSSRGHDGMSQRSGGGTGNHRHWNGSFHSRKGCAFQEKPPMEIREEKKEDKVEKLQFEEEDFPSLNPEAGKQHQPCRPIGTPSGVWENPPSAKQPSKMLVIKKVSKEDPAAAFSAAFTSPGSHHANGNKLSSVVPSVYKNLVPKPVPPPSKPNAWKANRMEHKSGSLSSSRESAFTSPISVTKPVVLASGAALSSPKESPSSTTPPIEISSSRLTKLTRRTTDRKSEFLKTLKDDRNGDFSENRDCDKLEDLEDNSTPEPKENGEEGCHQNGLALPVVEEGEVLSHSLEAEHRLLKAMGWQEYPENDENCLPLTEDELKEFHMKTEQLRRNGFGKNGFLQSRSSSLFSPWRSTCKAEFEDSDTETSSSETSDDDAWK
UniProt Q9NU53: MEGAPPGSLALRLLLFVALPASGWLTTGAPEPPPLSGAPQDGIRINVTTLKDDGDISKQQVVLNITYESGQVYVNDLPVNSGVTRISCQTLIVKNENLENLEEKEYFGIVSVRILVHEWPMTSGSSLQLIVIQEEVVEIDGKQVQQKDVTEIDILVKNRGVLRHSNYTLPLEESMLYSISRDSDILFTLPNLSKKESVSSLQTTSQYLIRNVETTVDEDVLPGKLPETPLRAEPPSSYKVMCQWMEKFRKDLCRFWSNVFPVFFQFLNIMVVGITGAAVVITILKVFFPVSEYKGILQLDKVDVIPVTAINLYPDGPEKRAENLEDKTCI
UniProt Q9Y692: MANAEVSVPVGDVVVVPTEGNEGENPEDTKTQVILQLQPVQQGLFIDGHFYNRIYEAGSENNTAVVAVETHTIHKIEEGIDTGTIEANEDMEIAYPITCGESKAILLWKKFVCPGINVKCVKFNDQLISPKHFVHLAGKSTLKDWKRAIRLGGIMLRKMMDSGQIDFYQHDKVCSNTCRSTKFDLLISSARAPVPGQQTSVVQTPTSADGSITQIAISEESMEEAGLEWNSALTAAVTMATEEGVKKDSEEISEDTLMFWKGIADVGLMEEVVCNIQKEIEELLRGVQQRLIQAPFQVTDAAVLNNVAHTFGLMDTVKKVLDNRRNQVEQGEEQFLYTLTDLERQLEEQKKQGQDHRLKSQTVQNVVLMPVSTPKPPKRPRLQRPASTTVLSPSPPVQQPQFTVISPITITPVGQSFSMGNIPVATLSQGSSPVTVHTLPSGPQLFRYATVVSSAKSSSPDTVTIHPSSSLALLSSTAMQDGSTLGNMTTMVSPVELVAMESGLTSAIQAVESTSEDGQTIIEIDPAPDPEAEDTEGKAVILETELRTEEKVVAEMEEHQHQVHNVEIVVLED
UniProt Q9P107: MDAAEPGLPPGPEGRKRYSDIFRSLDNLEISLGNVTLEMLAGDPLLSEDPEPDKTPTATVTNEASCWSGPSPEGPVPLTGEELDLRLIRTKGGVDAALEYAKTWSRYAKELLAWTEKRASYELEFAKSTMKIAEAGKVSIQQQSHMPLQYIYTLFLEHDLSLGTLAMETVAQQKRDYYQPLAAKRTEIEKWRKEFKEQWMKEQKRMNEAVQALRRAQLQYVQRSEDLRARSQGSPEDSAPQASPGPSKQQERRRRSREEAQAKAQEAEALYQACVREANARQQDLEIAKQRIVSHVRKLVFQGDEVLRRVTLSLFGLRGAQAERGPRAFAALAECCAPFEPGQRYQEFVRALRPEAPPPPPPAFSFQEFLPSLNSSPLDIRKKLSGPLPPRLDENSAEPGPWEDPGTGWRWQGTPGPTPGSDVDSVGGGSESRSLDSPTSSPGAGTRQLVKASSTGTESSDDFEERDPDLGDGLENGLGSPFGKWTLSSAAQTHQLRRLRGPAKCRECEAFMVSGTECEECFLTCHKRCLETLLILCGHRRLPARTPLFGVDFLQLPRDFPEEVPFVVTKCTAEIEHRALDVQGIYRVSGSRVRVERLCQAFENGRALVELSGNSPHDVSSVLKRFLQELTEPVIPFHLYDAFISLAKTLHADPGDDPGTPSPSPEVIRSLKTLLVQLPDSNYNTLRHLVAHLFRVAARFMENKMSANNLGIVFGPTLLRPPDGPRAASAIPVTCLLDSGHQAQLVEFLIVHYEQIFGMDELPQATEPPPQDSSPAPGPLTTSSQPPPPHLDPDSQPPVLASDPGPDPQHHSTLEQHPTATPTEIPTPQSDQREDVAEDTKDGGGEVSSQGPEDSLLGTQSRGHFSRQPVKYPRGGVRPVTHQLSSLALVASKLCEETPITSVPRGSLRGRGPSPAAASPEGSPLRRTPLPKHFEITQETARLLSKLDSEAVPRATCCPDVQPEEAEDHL
UniProt Q9BRR8: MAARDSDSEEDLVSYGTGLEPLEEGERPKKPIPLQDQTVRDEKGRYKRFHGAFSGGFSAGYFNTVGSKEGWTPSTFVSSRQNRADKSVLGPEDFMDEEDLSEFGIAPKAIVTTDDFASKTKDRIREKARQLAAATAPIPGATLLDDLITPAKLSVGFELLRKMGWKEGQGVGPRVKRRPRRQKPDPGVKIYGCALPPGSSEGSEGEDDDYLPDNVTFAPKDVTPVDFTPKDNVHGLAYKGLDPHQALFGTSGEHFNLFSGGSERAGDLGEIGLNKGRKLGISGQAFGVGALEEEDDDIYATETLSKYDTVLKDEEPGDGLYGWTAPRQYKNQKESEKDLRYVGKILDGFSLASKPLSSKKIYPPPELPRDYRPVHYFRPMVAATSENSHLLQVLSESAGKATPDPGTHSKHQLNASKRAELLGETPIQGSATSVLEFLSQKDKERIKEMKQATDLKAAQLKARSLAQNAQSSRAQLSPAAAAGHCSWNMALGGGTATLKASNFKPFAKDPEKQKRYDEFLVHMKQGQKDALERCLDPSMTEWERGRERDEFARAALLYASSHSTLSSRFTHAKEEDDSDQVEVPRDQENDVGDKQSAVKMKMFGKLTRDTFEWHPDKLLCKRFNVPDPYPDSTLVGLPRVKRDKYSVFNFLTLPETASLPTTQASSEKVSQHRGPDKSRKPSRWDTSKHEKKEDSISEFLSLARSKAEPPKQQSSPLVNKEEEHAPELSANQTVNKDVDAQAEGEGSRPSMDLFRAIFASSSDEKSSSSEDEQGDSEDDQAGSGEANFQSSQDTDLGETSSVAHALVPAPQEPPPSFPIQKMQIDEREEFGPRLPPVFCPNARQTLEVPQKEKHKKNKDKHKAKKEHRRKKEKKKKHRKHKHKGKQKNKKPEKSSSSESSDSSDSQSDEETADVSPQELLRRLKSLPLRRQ
UniProt Q99795: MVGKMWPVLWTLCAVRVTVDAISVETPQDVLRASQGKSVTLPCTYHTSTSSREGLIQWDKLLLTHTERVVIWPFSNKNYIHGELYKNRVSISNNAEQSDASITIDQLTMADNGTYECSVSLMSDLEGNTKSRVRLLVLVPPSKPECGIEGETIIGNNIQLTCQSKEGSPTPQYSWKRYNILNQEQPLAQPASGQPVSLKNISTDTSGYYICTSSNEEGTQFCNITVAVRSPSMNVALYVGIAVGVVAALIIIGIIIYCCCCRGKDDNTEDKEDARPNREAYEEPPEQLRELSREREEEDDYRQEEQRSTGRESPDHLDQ
UniProt P00367: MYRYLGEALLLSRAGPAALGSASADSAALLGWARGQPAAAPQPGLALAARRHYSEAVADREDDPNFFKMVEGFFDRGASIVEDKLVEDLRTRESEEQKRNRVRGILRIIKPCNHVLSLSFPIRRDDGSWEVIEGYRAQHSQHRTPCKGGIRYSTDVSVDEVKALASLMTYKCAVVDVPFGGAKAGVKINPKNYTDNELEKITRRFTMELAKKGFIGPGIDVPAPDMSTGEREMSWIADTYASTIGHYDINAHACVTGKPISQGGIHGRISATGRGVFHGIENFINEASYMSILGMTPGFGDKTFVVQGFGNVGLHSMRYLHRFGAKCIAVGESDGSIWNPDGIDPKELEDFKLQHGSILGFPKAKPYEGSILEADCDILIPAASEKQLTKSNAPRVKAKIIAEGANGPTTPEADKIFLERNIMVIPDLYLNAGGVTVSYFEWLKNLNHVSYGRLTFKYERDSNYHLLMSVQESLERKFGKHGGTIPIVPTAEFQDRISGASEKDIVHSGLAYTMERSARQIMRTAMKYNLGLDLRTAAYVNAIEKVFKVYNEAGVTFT
UniProt Q9P2T1: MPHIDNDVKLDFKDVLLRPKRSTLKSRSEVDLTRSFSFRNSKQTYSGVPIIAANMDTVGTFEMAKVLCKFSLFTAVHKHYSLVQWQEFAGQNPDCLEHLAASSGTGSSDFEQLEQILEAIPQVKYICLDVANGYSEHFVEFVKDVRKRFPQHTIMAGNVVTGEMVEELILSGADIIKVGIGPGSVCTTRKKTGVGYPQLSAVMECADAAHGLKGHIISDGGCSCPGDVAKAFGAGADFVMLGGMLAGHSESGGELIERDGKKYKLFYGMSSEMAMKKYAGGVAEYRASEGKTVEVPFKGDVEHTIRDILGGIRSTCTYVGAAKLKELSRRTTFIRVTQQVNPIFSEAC
UniProt Q3T906: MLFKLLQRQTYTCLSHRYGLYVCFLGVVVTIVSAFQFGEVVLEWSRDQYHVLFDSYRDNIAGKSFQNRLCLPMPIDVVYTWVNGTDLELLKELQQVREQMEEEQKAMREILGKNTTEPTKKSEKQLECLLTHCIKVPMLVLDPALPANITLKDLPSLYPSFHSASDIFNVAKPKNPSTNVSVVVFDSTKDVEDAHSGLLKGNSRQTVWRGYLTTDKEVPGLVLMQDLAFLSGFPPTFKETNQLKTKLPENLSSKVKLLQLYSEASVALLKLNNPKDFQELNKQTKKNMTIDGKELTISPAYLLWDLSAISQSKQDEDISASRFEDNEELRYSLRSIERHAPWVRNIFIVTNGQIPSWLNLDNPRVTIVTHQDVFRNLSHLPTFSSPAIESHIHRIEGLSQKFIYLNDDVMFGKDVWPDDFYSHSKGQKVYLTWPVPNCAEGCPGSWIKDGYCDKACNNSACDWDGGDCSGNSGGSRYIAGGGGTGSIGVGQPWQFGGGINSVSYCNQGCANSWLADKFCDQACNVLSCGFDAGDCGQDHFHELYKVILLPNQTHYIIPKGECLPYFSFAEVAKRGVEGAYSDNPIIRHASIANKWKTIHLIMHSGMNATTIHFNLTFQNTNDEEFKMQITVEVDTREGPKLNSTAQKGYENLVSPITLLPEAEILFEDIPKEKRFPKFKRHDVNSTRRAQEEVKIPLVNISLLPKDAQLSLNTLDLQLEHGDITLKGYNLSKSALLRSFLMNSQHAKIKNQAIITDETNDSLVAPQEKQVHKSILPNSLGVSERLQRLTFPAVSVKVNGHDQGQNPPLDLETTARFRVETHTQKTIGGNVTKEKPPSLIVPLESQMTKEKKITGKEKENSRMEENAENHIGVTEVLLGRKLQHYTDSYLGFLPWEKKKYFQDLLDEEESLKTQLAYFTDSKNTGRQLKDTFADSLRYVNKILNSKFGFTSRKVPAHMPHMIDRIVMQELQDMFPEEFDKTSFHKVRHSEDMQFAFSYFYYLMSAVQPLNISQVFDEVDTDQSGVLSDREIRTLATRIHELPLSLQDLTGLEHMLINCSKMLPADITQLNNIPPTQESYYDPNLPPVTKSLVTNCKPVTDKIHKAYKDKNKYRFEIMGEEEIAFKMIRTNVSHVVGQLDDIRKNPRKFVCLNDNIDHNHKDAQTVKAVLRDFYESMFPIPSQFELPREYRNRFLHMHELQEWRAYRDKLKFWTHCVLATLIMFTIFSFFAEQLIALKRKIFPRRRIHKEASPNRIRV

compound: NC(=O)Nc1cc(-c2cccc(F)c2)sc1C(=O)N[C@H]1CCCNC1; experiment: log2 fold change, soluble protein after heating vs DMSO (PISA); higher = thermal stabilisation; K562 lysate, 10 uM; active = over 0.2 and 3.5 SD of the protein, either way, in both replicates (recomputed)
Method in brief: (§1)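 Dounce homogenisation of K562 pellets in PBS pH 7.4 with 1 mM MgCl2 produced a crude extract, used at 1 mg/mL protein. Exposure to 10 μM compound lasted 30 min, and aliquots were then heated for 3 min across 48°C-58°C, pooled and brought to 0.5% NP-40 at 4°C. The supernatant after 21,000xg for 90 min was quantified by TMTpro 16plex LC-MS/MS with channel sums equalised. Duplicate values are given as log-two fold change in thermal stability relative to solvent controls.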

log2 fold change, inactive:
GNA12 (UniProt Q03113) 0.067
GKAP1 (UniProt Q5VSY0) -0.022
GMPPA (UniProt Q96IJ6) 0.048
GOPC (UniProt Q9HD26) 0.032
GPR68 (UniProt Q15743) -0.026
GPBP1L1 (UniProt Q9HC44) 0.025
GINM1 (UniProt Q9NU53) 0.047
GMEB1 (UniProt Q9Y692) -0.001
GMIP (UniProt Q9P107) 0.034
GLMP (UniProt Q8WWB7) 0.054
GPATCH3 (UniProt Q96I76) 0.07
GPATCH1 (UniProt Q9BRR8) -0.007

compound: NC(=O)c1cnc(N[C@@H]2CCCC[C@@H]2N)nc1Nc1cccc(-n2nccn2)c1; experiment: as above
Method in brief: as §1

log2 fold change, inactive:
GGACT (UniProt Q9BVM4) 0.003
GIT1 (UniProt Q9Y2X7) -0.007
GPA33 (UniProt Q99795) -0.045
GGH (UniProt Q92820) -0.02
GLUD1 (UniProt P00367) 0.023
GMPR2 isoform 2 (UniProt Q9P2T1) 0.007
GNL3L (UniProt Q9NVN8) -0.233
GNAQ (UniProt P50148) 0.037
GLTP (UniProt Q9NZD2) 0.075
GLRX5 (UniProt Q86SX6) -0.075
GPATCH11 (UniProt Q8N954) 0.009
GMNN (UniProt O75496) 0.012
GM2A (UniProt P17900) 0.018
GNAS isoform 3 (UniProt P63092) -0.039
GNA12 (UniProt Q03113) 0.201
GMPPA (UniProt Q96IJ6) 0.033
GOPC (UniProt Q9HD26) 0.036
GPBP1L1 (UniProt Q9HC44) 0.102
GMEB1 (UniProt Q9Y692) -0.061
GMIP (UniProt Q9P107) -0.025
GPATCH1 (UniProt Q9BRR8) 0.027

compound: NC1(c2ccc(-c3nc4ccn5c(=O)[nH]nc5c4cc3-c3ccccc3)cc2)CCC1; experiment: as above
Method in brief: as §1

log2 fold change, inactive:
GGACT (UniProt Q9BVM4) -0.009
GPSM1 (UniProt Q86YR5) -0.074
GIT1 (UniProt Q9Y2X7) -0.026
GPA33 (UniProt Q99795) 0.047
GGH (UniProt Q92820) 0.015
GLUD1 (UniProt P00367) 0.017
GOLGA4 (UniProt Q13439) -0.05
GMPR2 isoform 2 (UniProt Q9P2T1) 0.012
GNPTAB (UniProt Q3T906) -0.042
GNL3L (UniProt Q9NVN8) -0.059
GNAQ (UniProt P50148) 0.049
GLTP (UniProt Q9NZD2) 0.056
GLRX5 (UniProt Q86SX6) 0.027
GPATCH11 (UniProt Q8N954) 0.013
GMNN (UniProt O75496) 0.032
GM2A (UniProt P17900) 0.016
GNAS isoform 3 (UniProt P63092) -0.046
GMPPA (UniProt Q96IJ6) -0.047
GOPC (UniProt Q9HD26) 0.067
GPBP1L1 (UniProt Q9HC44) 0.07
GINM1 (UniProt Q9NU53) -0.027
GMEB1 (UniProt Q9Y692) 0.042
GMIP (UniProt Q9P107) -0.022
GLMP (UniProt Q8WWB7) -0.073
GPATCH3 (UniProt Q96I76) 0.124
GPATCH1 (UniProt Q9BRR8) 0.075
